# Reference: patent US20210002330A1 (ASOCIACI N CENTRO DE INVESTIGACI N COOPERATIVA EN …, published 2021)
# T1: fluorescein-labeled Hsp90 peptide (fluorescein label (position not given))
# T1 construct: also called target peptide; C-terminal peptide of Hsp90
# T1 peptide: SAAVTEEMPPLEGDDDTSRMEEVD
# Columns and labels:
# [1] = molecular target: T1, fluorescein-labeled Hsp90 peptide; experiment: fluorescence anisotropy; protein titrated into 50 nM fluorescein-labeled Hsp90 peptide
# Method: (§1) In addition, the ligand binding activity of the tested proteins was studied by using CC1-CTPR390, CC1-TPR2A, CC1-TPR2A_T332R_D334K proteins and its target peptide. […] Fluorescence intensities were recorded in a Perkin Elmer Fluorimeter equipped with excitation and emission polarizers. Excitation was accomplished with a 5 nm slit width at 492 nm and the emission recorded at 516 nm with slit width of 5 nm. […]
# [2] = molecular target: T1, fluorescein-labeled Hsp90 peptide; experiment: fluorescence anisotropy with fluorescein-labeled Hsp90 peptide; protein-stabilised gold nanocluster complex
# Method: as §1
# Finally, fluorescence anisotropy was used to monitor the interaction between the CC1-CTPR390-AuNCs, CC1-TPR2A-AuNCs and CC1-TPR2A_T332R_D334K-AuNCs complexes and a fluorescein-labeled Hsp90 peptide to determine the corresponding Kd value.
Binder,Kd [1],Kd [2]
"CC1-TPR2A (designed binder, CC1 Cys-clamp module fused to the Hsp90 recognition domain TPR2A) AEAWCNLGCAYYKQGDYDEAIEYYQKALELDPRSACAWYCLGNAYYKQGDYDEAIEYYQKALELDPRSALAEKNLGNAYYKQKDFDTALKHYDKAKELDPTNMTYITNQAAVYFEKGDYNKCRELCEKAIEVGRENREDYRQIAKAYARIGNSYFKEEKYKDAIHFYNKSLAEHRTPDVLKKCQQAEKILKEQ",5 µM,
CC1-TPR2A_T332R_D334K (designed binder) AEAWCNLGCAYYKQGDYDEAIEYYQKALELDPRSACAWYCLGNAYYKQGDYDEAIEYYQKALELDPRSALAEKNLGNAYYKQKDFDTALKHYDKAKELDPTNMTYITNQAAVYFEKGDYNKCRELCEKAIEVGRENREDYRQIAKAYARIGNSYFKEEKYKDAIHFYNKSLAEHRRPKVLKKCQQAEKILKEQ,0.055 µM,
"CC1-TPR2A_T332R_D334K-AuNCs (designed binder, gold nanocluster (AuNC) stabilised on the protein (CC1 4-Cys clamp)) AEAWCNLGCAYYKQGDYDEAIEYYQKALELDPRSACAWYCLGNAYYKQGDYDEAIEYYQKALELDPRSALAEKNLGNAYYKQKDFDTALKHYDKAKELDPTNMTYITNQAAVYFEKGDYNKCRELCEKAIEVGRENREDYRQIAKAYARIGNSYFKEEKYKDAIHFYNKSLAEHRRPKVLKKCQQAEKILKEQ",,~0.055 µM
"CC1-TPR2A-AuNCs (designed binder, gold nanocluster (AuNC) stabilised on the protein (CC1 4-Cys clamp)) AEAWCNLGCAYYKQGDYDEAIEYYQKALELDPRSACAWYCLGNAYYKQGDYDEAIEYYQKALELDPRSALAEKNLGNAYYKQKDFDTALKHYDKAKELDPTNMTYITNQAAVYFEKGDYNKCRELCEKAIEVGRENREDYRQIAKAYARIGNSYFKEEKYKDAIHFYNKSLAEHRTPDVLKKCQQAEKILKEQ",,~5 µM
